Experimental data from paper PMC4650548.
No constants are given. Whether binding was seen depends on the method and setting. In cells and extracts the contact can be indirect. Some results given as binding are weak or reduced against the parent protein; the word gives no strength.

The chains behind the UniProt entries cited, without tags or fusion partners. Where a name states a change or a piece, a line headed by the entry shows the natural chain unless it says otherwise.
UniProt Q9P1Y6: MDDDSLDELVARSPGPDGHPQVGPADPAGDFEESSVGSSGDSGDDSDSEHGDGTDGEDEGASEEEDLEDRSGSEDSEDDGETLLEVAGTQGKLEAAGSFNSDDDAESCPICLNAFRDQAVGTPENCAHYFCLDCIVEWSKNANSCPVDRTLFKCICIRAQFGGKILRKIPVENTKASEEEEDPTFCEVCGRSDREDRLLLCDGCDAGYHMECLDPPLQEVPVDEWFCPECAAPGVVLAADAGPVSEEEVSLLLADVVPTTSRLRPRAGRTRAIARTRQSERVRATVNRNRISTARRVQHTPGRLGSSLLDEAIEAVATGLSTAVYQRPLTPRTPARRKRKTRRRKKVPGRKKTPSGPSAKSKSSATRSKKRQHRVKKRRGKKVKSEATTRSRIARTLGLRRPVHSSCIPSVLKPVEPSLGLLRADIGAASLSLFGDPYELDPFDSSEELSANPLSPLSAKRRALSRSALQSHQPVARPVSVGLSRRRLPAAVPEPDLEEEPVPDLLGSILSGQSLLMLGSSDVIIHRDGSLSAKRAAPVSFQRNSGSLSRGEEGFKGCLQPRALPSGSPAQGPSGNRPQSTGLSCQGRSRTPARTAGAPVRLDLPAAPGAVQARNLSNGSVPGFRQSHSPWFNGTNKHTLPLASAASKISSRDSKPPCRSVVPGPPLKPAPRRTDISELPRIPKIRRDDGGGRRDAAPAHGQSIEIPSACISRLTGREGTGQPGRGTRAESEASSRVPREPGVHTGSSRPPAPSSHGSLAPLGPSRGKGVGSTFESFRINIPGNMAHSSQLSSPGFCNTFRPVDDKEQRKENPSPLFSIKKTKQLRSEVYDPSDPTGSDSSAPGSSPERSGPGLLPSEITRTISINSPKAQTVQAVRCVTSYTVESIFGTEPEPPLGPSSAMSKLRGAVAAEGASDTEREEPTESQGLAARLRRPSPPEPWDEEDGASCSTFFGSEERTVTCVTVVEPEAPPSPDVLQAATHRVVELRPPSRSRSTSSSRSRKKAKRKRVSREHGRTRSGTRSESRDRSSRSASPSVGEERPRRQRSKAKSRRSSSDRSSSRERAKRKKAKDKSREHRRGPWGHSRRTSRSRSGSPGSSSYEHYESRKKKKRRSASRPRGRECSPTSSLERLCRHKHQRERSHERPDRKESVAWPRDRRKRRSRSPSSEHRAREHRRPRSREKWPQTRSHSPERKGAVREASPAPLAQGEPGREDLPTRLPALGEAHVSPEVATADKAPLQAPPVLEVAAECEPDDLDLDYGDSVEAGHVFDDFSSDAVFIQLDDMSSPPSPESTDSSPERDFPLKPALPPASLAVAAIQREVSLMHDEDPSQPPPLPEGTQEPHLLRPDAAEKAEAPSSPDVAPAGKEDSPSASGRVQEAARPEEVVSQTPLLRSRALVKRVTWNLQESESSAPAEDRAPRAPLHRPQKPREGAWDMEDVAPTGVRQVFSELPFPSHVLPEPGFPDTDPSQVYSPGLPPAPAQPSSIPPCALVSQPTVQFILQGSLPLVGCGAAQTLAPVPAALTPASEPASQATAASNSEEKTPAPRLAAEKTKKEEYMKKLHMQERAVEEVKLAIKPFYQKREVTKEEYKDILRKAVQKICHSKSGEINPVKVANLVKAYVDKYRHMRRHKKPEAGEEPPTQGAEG
UniProt O60934: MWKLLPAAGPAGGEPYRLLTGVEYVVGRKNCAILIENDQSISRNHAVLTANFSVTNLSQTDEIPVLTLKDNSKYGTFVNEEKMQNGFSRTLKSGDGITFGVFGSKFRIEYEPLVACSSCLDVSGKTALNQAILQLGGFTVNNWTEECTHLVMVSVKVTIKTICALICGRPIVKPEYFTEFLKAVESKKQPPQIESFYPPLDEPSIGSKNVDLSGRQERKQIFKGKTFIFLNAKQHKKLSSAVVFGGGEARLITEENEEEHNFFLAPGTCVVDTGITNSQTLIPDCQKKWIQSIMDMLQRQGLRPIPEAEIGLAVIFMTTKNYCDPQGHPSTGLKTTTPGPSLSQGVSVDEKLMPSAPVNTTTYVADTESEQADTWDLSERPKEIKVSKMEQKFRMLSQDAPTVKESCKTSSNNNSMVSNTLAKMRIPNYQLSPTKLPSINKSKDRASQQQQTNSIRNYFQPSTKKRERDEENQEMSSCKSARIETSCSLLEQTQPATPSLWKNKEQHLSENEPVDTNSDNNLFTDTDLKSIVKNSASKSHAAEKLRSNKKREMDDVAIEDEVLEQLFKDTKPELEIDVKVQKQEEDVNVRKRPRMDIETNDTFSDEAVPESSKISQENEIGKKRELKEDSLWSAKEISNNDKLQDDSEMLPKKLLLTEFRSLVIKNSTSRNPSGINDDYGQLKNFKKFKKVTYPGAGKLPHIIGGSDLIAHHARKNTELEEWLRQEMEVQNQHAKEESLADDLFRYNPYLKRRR

How the values were obtained:
[1] = molecular target: HA-PHRF1 (reciprocal transfection of Figure 5a) (human) (UniProt Q9P1Y6); test: co-IP; reciprocal transfection with HA-PHRF1; precipitates of PHRF1 blotted for NBS1 and Mre11
[2] = molecular target: T1, Biotin-labeled A^915DA^917E peptide (a.a. 908-924 of PHRF1) (human); test: pull-down; biotin-labeled PHRF1 peptides (a.a. 908-924) incubated with 500 ug HeLa whole-cell extracts at 4 C for 3 h, then streptavidin beads for 3 h; immunoblot; only the target purified
T1 sequence (peptide, biotin (position not stated)): AVAAEGAADAEREEPTE

[3] = molecular target: HA-PHRF1^S925A/S1389A (human) (UniProt Q9P1Y6); test: co-IP; HA-tagged PHRF1 constructs transfected into HEK293T cells (48 h); cell extracts precipitated with anti-HA agarose, immunoblot with the indicated antibodies; time course after CPT exposure in Figure 3a
[4] = molecular target: HA-PHRF1 (human) (UniProt Q9P1Y6); test: as above
[5] = molecular target: HA-PHRF1^S925A (human) (UniProt Q9P1Y6); test: as above
[6] = molecular target: FLAG-NBS1 (UniProt O60934); test: co-IP; HeLa cells transfected with FLAG-NBS1; extracts precipitated with anti-FLAG agarose, immunoblot with anti-PHRF1

## Endogenous NBS1 (HeLa) (from UniProt O60934 1-754)
[1]
  binding: binds
[2]
  binding: no binding

## Endogenous NBS1 (HEK293T) (from UniProt O60934 1-754)
[3]
  binding: binds
[4]
  binding: binds
[5]
  binding: binds

## Endogenous PHRF1 (from UniProt Q9P1Y6 1-1649)
[6]
  binding: binds
